Laboratory results as given in patent publication US20180340025A1.
Substitutions are numbered along the chain they refer to. No constants are given. Whether binding was seen depends on the method and setting. Some binding calls cover weakened binding; strength is not graded here. For part of these data: Sequences can lack the tags named with a protein.

B1: murine anti-LAG-3 monoclonal antibody BAP050 (antibody, V domains shown)
VH: QIQLVQSGPELKKPGETVKISCKASGFTLTNYGMNWVRQTPGKGLKWMGWINTDTGEPTYADDFKGRFAFSLETSASTASLQINNLKNADTATYFCARNPPYYYGTNNAEAMDYWGQGTAVTVSS
VL: DIQMTQTTSSLSASLGDRVTISCSSSQDISNYLNWYQQKPDGTVKVLIYYTSTLHLGVPSRFSGSGSGTDYSLTISNLELEDIATYYCQQYYNLPWTFGGGTKLEIK
B2: BAP050-chi (antibody, human IgG4 S228P, kappa, V domains shown)
VH: B1 VH with A120T
VL: DIQMTQTTSSLSASLGDRVTISCSSSQDISNYLNWYQQKPDGTVKVLIYYTSTLHLGVPSRFSGSGSGTDYSLTISNLELEDIATYYCQQYYNLPWTFGQGTKVEIKR
B3: BAP050-hum02-Ser (antibody, human IgG4 S228P, kappa, V domains shown)
VH: EVQLVQSGAEVKKPGATVKISCKVSGFTLTNYGMNWVRQAPGQGLEWMGWINTDTGEPTYADDFKGRFVFSLDTSVSTAYLQISSLKAEDTAVYYCARNPPYYYGTNNAEAMDYWGQGTTVTVSS
VL: DIQMTQSPSSLSASVGDRVTITCSSSQDISNYLNWYQQKPGKAPKLLIYYTSTLHLGIPPRFSGSGYGTDFTLTINNIESEDAAYYFCQQYYNLPWTFGQGTKVEIKR
B4: BAP050-hum09-Ser (antibody, human IgG4 S228P, kappa, V domains shown)
VH: B3 VH with E1Q, T17S, I20V, V24A, P41R, G44R, M48I
VL: B3 VL
B5: BAP050-hum11-Ser (antibody, human IgG4 S228P, kappa, V domains shown)
VH: B3 VH with E1Q, T17S, I20V, V24A, P41R, G44R, M48I
VL: DIQMTQSPSSLSASVGDRVTITCSSSQDISNYLNWYLQKPGQSPQLLIYYTSTLHLGVPSRFSGSGSGTEFTLTISSLQPDDFATYYCQQYYNLPWTFGQGTKVEIKR
B6: BAP050-hum12-Ser (antibody, human IgG4 S228P, kappa, V domains shown)
VH: B3 VH with E1Q, T17S, I20V, V24A, P41R, G44R, M48I
VL: EIVLTQSPDFQSVTPKEKVTITCSSSQDISNYLNWYQQKPGQAPRLLIYYTSTLHLGVPSRFSGSGSGTDFTLTISSLQPEDFATYYCQQYYNLPWTFGQGTKVEIKR
B7: BAP050-hum13-Ser (antibody, human IgG4 S228P, kappa, V domains shown)
VH: B3 VH with E1Q, T17S, I20V, V24A
VL: B3 VL

Biological target: T1, LAG-3-huIgG1 Fc fusion protein (human) (UniProt P18627)
T1 sequence (looked up): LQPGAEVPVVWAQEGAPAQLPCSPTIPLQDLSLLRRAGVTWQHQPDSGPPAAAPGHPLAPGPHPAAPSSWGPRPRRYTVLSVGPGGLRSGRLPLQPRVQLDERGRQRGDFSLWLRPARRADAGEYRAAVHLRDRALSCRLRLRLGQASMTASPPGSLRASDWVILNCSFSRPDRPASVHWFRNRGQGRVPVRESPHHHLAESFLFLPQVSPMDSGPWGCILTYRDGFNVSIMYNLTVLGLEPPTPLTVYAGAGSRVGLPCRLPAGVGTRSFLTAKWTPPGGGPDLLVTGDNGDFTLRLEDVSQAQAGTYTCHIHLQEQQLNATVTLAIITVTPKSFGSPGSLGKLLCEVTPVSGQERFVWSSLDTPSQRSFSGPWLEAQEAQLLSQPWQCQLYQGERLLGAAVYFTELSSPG
Experiment: FACS blocking assay: serial dilutions of the mAb with LAG-3-huIgG1 Fc at 2 µg/mL on Daudi cells (MHC class II); bound LAG-3-Ig detected with PE anti-human IgG F(ab')2

binding, binds:
B1
B2
B3
B4
B5
B6
B7

Biological target: T2, LAG-3 with D2 deletion expressed on CHO cells (UniProt P18627)
T2 sequence (looked up): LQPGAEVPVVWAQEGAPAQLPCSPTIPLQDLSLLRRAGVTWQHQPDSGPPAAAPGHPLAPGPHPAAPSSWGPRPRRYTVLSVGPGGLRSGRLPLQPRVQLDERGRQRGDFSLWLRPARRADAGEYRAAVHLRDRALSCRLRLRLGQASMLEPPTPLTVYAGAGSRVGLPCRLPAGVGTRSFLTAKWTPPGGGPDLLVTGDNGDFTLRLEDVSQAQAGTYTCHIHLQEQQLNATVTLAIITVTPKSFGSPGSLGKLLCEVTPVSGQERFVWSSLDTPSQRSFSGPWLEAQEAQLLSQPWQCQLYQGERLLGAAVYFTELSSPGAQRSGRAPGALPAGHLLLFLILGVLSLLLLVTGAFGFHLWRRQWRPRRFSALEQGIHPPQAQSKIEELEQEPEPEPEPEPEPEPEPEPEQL
Experiment: binding to transfected CHO cells

binding, binds:
B1

Biological target: T3, LAG-3 with partial deletion of D1 extra loop expressed on CHO cells (UniProt P18627)
T3 sequence (looked up): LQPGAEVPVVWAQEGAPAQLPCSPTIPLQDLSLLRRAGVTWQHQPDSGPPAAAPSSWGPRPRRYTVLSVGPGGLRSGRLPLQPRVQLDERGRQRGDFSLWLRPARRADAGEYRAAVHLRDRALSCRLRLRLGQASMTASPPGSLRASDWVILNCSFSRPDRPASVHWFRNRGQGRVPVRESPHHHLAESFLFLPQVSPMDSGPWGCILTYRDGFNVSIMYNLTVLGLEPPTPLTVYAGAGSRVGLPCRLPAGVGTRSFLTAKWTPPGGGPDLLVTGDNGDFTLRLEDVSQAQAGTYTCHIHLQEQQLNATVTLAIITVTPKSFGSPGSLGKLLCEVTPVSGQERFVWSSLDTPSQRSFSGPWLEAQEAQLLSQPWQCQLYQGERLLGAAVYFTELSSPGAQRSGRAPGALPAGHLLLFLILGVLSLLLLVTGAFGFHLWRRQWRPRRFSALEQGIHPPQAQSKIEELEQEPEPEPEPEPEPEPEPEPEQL
Experiment: binding to transfected CHO cells

binding, binds:
B1
